Experimental data as given in publication PMC7960550.

The chains behind the UniProt entries cited, without tags or fusion partners. Where a name states a change or a piece, a line headed by the entry shows the natural chain unless it says otherwise.
UniProt Q9H040: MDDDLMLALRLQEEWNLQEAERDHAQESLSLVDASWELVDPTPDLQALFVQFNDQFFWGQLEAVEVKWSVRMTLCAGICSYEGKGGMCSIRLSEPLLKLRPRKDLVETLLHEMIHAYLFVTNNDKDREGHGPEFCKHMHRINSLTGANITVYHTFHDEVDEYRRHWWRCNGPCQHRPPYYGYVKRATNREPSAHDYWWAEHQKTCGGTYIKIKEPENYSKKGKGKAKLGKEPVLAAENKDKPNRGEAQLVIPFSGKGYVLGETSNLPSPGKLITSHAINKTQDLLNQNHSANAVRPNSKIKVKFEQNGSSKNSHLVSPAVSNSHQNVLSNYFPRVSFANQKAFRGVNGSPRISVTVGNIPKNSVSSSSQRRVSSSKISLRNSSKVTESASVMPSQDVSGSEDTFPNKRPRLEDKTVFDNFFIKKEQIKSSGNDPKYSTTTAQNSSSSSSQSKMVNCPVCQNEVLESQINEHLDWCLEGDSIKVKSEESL
UniProt P51784: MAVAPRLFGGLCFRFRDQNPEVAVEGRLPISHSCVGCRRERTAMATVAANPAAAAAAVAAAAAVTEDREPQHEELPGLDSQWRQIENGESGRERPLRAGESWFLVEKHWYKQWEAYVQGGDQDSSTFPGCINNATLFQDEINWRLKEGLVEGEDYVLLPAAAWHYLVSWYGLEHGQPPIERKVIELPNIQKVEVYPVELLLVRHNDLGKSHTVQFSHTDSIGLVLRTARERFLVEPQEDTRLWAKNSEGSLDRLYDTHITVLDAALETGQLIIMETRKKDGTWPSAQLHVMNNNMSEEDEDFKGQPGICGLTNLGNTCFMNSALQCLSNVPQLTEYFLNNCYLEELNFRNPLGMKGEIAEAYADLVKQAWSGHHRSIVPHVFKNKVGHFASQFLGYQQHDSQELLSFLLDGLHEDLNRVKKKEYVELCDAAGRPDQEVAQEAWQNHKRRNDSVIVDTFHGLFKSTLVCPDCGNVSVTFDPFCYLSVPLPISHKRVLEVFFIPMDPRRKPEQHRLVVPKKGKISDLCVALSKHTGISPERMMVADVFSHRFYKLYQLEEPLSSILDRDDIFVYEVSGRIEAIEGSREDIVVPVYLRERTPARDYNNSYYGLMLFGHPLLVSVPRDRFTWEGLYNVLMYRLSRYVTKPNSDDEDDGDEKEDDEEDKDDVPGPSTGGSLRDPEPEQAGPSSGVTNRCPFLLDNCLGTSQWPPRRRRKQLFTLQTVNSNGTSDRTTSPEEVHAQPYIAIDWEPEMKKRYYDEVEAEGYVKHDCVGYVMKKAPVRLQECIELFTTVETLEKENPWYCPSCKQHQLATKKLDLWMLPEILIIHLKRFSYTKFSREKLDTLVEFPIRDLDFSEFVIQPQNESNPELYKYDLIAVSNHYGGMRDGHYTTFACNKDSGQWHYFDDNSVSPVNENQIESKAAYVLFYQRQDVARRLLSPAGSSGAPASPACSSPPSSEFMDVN

Molecular target: SFB-SPRTN ΔSprT (UniProt Q9H040)
Test: co-IP; HEK 293T cells transfected with SFB-tagged (and Myc-tagged) constructs, 24 h; lysed in NETN buffer; S-protein agarose beads overnight at 4 °C; western blot; SFB-SPRTN with USP11 also after 20 μM VP16 for 4 h, CPT, formaldehyde or hydroxyurea (slight increase)

Substance	binding
Endogenous USP11 (from UniProt P51784 1-963)	no binding
Myc-USP11 full-length (FL) (from UniProt P51784 1-963)	no binding

Results are given in words; binding and its absence hold for the method and conditions named. In cells and extracts the contact can be indirect.
